From article PMC11347159, “MUT-7 exoribonuclease activity and localization are mediated by an ancient domain” (Nucleic Acids Research, 2023)
These are yes or no findings as the source states them, for the method shown. In cells and extracts the contact can be indirect. Binding can be weak; no strength is given.

Protein sequences, listed by entry. Tags and fused reporters are not part of them. Lines headed by an entry give the natural chain unless they say otherwise; changes in a name come on top.
UniProt P34607: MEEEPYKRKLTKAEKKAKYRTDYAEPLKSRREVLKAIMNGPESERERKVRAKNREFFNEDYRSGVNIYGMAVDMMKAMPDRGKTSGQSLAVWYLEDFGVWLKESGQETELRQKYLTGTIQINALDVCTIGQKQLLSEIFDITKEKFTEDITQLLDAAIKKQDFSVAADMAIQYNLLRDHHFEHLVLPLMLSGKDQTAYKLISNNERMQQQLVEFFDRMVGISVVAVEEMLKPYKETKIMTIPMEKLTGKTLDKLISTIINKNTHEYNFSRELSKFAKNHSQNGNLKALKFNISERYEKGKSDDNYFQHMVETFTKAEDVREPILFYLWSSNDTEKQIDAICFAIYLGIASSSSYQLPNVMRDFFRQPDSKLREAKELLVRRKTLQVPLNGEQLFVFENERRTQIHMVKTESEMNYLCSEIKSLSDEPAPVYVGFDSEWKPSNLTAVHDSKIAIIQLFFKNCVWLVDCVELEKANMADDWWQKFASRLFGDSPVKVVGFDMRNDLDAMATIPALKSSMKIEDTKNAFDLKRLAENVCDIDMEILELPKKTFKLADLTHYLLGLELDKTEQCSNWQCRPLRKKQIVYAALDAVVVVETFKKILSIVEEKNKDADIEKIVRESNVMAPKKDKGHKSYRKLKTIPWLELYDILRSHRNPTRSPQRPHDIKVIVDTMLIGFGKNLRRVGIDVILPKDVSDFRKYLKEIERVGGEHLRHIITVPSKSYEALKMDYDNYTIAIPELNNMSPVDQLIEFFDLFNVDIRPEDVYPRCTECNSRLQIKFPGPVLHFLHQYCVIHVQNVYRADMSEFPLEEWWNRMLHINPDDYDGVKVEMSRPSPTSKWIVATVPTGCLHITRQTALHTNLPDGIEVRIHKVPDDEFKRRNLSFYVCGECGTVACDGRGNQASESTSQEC

Target: catalytically inactive MUT-7^FL(D453A) (Caenorhabditis elegans) (UniProt P34607)
Assay: co-purification; MUT-7 mutant and MUT-8^CTD purified together as a complex from E. coli (steps in Supplementary Table S1)

B1: MUT-8^CTD (322–578) (domain or fragment, UniProt Q19672 322-578)
chain: DEDEIDDEDTYGTRGTSNIPMRPFIKDLAPTMLQLLRQDKTDSEKPQSALCTVVQKIDGFAILYTAKRDVINVLLQERSCEGLERSPQLGDVAFFDILPRRIETKDRLIFKIPYTHIAVKKKPDTPDSLLKIDCFKNSVRCFGGVLEMKVKIALSKPELVVEQYHDNTEMNSDHHFYYLKATNGVLVTIPKERLLNHLNSKLSADFDLIAWVVHRKPIGNVSLHIGKGGEAYQQFTNGDIRELPPLSSNQYFMNVRK
binding: binds
